# Results are given in words; binding and its absence hold for the method and conditions named. Some binding calls cover weakened binding; strength is not graded here.
# The chains behind the UniProt entries cited, without tags or fusion partners. Residues count along the entry.
# UniProt O14763, residues 56-211: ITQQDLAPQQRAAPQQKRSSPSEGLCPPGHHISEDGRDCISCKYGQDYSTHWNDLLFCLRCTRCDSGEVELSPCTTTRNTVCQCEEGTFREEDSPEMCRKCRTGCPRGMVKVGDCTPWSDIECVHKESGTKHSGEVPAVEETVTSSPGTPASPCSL
# Tests used:
# [1] = target: death receptor 5 (DR5) ectodomain (human) (UniProt O14763); experiment: SEC; SEC of recombinant DR5 after IMAC; oligomers seen before the buffer was changed to acetate pH 5.0; both purified
# [2] = target: death receptor 5 (DR5) ectodomain (human) (UniProt O14763); experiment: SDS-PAGE under non-reducing and reducing conditions, with western blot; purified DR5 ectodomain (5 ug per lane) run with or without dithiotreitol; band around 40,000 only under non-reducing conditions; both purified
substance,measurement,setting,value
death receptor 5 (DR5) ectodomain (from UniProt O14763 56-211) (domain or fragment),binding,[1],binds
same,binding,[2],binds
